# Test results taken from the supplement of paper PMC7411640.
# Counter-ions that a name gives are not always drawn. This is one part of the list. Repeats in this data set agree poorly, so a single value says little.
# Test system: MDA-MB-468
# Assay: phospho-S6 immunofluorescence (DAPI-normalised), per-plate z-score; higher = higher phospho-S6 signal (less pathway suppression)
# Details: compound 0.1 µM; co-treatment: vehicle; 24 h
# Method: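 GPCR-targeted compound library (MedChemExpress HY-L006) tested on MDA-MB-468 PTEN-null TNBC cells in 384-well plates at 0.1, 1 or 10 uM, combined with vehicle, GDC0941 450 nM or lapatinib 1 uM, for 24 h. Phospho-S6 (S240/244) immunofluorescence normalised to DAPI and expressed as a per-plate z-score; values are the mean of biological triplicates.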
row,SMILES,phospho-S6 immunofluorescence (z-score)
1,CCCc1nc(C(C)(C)O)c(C(=O)O)n1Cc1ccc(-c2ccccc2-c2nnn[nH]2)cc1 [Olmesartan],-1.03
2,CC(N)(C(=O)O)c1ccc(C(=O)O)cc1 (racemic),0.38
3,c1cc(CN2CCCNCCNCCCNCC2)ccc1CN1CCCNCCNCCCNCC1 [Plerixafor (octahydrochloride)],-1.05
4,CN1CCC[C@@H]1CCO[C@](C)(c1ccccc1)c1ccc(Cl)cc1 [Clemastine (fumarate)],1.3
5,Cc1nc2c([nH]1)-c1ccccc1N(C(=O)c1ccc(NC(=O)c3ccccc3-c3ccccc3)cc1)CC2 [Conivaptan (hydrochloride)],-0.03
6,COc1nc(C)cnc1NS(=O)(=O)c1cccnc1-c1ccc(-c2nnco2)cc1 [Zibotentan],-1.87
7,O=C(Nc1ccccc1)C12CC1C(=NO)c1ccccc1O2 (centres undefined),0.39
8,O=C(CCCN1CCC(O)(c2ccc(Cl)cc2)CC1)c1ccc(F)cc1 [Haloperidol],0.43
9,COc1ccc2cc(OCC3(C(=O)O)CN(C(=O)c4ccc(F)cc4)C3)ccc2c1,0.01
10,CC(C)C[C@H](NC(=O)CNC(=O)[C@H](Cc1ccc(O)cc1)NC(=O)[C@H](CO)NC(=O)[C@H](Cc1c[nH]c2ccccc12)NC(=O)[C@H](Cc1cnc[nH]1)NC(=O)[C@@H]1CCC(=O)N1)C(=O)N[C@@H](CCCNC(=N)N)C(=O)N1CCC[C@H]1C(=O)NCC(N)=O [Gonadorelin (acetate)],0.73
11,CN1CCC(=C2c3ccccc3CC(=O)c3sccc32)CC1 [Ketotifen (fumarate)],-0.91
12,CN1CCC(OC(c2ccccc2)c2ccccc2)CC1 [Diphenylpyraline (hydrochloride)],0.38
13,Cn1c(=O)c2nc[nH]c2n(C)c1=O [Theophylline],1.19
14,CC(=O)OCC(=O)[C@@]1(O)[C@H](C)C[C@H]2[C@@H]3CCC4=CC(=O)C=C[C@]4(C)[C@@]3(F)[C@@H](O)C[C@@]21C [Dexamethasone (acetate)],1.15

# Same assay, conditions: compound 1 µM; co-treatment: GDC0941 450 nM; 24 h
row,SMILES,phospho-S6 immunofluorescence (z-score)
1,Cc1cncc(CN2CCC(=C3c4ccc(Cl)cc4CCc4cccnc43)CC2)c1 [Rupatadine (Fumarate)],-0.78
2,Cn1cc(C(=O)[C@@H]2CCc3[nH]cnc3C2)c2ccccc21 [Ramosetron (Hydrochloride)],-1.12
3,N#Cc1cc(NC(=O)C(=O)O)c(Cl)c(NC(=O)C(=O)O)c1 [Lodoxamide],1.39
4,OCCOCCN1CCN(C(c2ccccc2)c2ccc(Cl)cc2)CC1 (centres undefined) [Hydroxyzine (dihydrochloride)],0.51
5,COc1ccc2c(c1OC)C(=O)O[C@@H]2[C@H]1c2c(cc3c(c2OC)OCO3)CCN1C [Noscapine],0.78
6,CCc1nn(CCCN2CCN(c3cccc(Cl)c3)CC2)c(=O)n1CCOc1ccccc1 [Nefazodone (hydrochloride)],0.31
7,CN(C)CCCN1c2ccccc2Sc2ccccc21 [Promazine (hydrochloride)],-0.8
8,CN(C)CCC(c1ccc(Cl)cc1)c1ccccn1 (centres undefined) [Chlorpheniramine (maleate)],-4.49
9,CCCCc1nc(C)c(CC(=S)N(C)C)c(=O)n1Cc1ccc(-c2ccccc2-c2nnn[nH]2)cc1 [Fimasartan],-0.34
10,C[N+]1(C)CCC(=C(c2ccccc2)c2ccccc2)CC1 [Diphenmanil (methylsulfate)],0.29
11,OCCOCCN1CCN(C2=Nc3ccccc3Sc3ccccc32)CC1 [Quetiapine (fumarate)],-0.34
12,COc1cc2nc(N3CCN(C(=O)c4ccco4)CC3)nc(N)c2cc1OC [Prazosin (hydrochloride)],1.1
13,N=C(N)NCCCCN [Agmatine (sulfate)],0.45
14,CN1CCN(C(=O)c2cc3cc(Cl)ccc3[nH]2)CC1,0.29
15,CN1CCc2cc(Cl)c(O)cc2[C@@H](c2ccccc2)C1,0.12
16,COc1cc2nc(N3CCN(C(=O)C4CCCO4)CC3)nc(N)c2cc1OC (centres undefined) [Terazosin (hydrochloride dihydrate)],0.5
17,NCCc1c[nH]cn1 [Histamine],-0.45
18,CCN1CCCC1CNC(=O)c1cc(S(N)(=O)=O)ccc1OC (centres undefined) [Sulpiride],-0.07
19,COCCOc1ccc(N2CCN(CCn3ncc4c3nc(N)n3nc(-c5ccco5)nc43)CC2)cc1 [Preladenant],-0.67
20,CCN(CC)CCNC(=O)c1cc(Cl)c(N)cc1OC [Metoclopramide (hydrochloride hydrate)],-0.39

# 2 compounds picked at random from the list so far, as already listed:
row,SMILES,phospho-S6 immunofluorescence (z-score)
8,CN(C)CCC(c1ccc(Cl)cc1)c1ccccn1 (centres undefined) [Chlorpheniramine (maleate)],-4.49
1,Cc1cncc(CN2CCC(=C3c4ccc(Cl)cc4CCc4cccnc43)CC2)c1 [Rupatadine (Fumarate)],-0.78
